Drawing on PMC3419070, “Identification of novel mitosis regulators through data mining with human centromere/kinetochore proteins as group queries” (BMC Cell Biology, 2012), this text covers binding for 1 molecule.

For this assay, the target named is T1, GST-p31^comet (expressed in HEK293 cells) (human) (UniProt Q15013).
T1 sequence: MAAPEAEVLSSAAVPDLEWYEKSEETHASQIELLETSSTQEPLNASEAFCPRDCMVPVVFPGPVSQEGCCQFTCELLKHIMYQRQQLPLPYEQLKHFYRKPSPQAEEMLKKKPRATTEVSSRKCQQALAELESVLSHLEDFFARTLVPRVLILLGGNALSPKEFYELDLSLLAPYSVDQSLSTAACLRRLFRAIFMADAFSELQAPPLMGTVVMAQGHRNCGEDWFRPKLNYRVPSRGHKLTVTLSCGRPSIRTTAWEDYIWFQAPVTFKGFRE
The assay is described as follows: pull-down; GST-pulldown from lysates of asynchronous HEK293 cells expressing GST-p31^comet alone or together with GFP-TRIP13; blots with anti-GST and anti-GFP antibodies; untransfected lysates as controls.

These are yes or no findings as the source states them, for the method shown. Binding seen in cells or lysates may run through a third protein. Some binding calls cover weakened binding; strength is not graded here. Tags and fused reporters may be left off the sequences shown.

B1: GFP-TRIP13 (protein, UniProt Q15645 1-432)
chain: MDEAVGDLKQALPCVAESPTVHVEVHQRGSSTAKKEDINLSVRKLLNRHNIVFGDYTWTEFDEPFLTRNVQSVSIIDTELKVKDSQPIDLSACTVALHIFQLNEDGPSSENLEEETENIIAANHWVLPAAEFHGLWDSLVYDVEVKSHLLDYVMTTLLFSDKNVNSNLITWNRVVLLHGPPGTGKTSLCKALAQKLTIRLSSRYRYGQLIEINSHSLFSKWFSESGKLVTKMFQKIQDLIDDKDALVFVLIDEVESLTAARNACRAGTEPSDAIRVVNAVLTQIDQIKRHSNVVILTTSNITEKIDVAFVDRADIKQYIGPPSAAAIFKIYLSCLEELMKCQIIYPRQQLLTLRELEMIGFIENNVSKLSLLLNDISRKSEGLSGRVLRKLPFLAHALYVQAPTVTIEGFLQALSLAVDKQFEERKKLAAYI
For B1, the binding entry is reported as “binds”.
